# In publication PMC12105006, “AI-Driven De Novo Design and Development of Nontoxic DYRK1A Inhibitors” (Journal of Medicinal Chemistry, 2025):
# Amino acid sequences for entries named in this document (tags omitted).
# UniProt Q9Y463, whole entry: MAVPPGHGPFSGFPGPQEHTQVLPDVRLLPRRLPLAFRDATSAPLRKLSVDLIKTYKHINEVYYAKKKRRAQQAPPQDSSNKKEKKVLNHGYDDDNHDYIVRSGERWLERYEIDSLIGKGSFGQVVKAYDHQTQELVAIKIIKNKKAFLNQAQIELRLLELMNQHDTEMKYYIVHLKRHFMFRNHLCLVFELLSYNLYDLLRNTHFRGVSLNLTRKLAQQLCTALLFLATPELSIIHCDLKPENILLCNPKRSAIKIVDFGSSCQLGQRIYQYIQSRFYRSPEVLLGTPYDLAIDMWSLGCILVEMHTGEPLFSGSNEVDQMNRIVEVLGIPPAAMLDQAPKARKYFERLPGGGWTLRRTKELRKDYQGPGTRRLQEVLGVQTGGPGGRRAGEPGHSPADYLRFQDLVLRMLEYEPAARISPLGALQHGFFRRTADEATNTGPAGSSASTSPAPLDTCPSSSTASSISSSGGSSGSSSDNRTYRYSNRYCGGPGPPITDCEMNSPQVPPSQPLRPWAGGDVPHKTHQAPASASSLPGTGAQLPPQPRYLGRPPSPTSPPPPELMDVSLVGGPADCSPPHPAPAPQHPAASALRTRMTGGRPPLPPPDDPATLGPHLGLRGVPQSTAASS
# Biological target: DYRK1B (Homo sapiens, UniProt Q9Y463)
# Test: ADP-Glo DYRK1B kinase enzyme inhibition assay
# Conditions: read-out: IC50 (nM) DYRK1B; ATP (10 μmol/well) and DYRKtidE (4 μmol/well) as substrate; triplicate
compound,measurement,value
"COc1ccc2c(c1)[nH]c1c(C)nccc12 [harmine, reference compound]",IC50,147 ± 54 nM
